Results as given in patent US6372772B1, “Inhibitors of redox signaling and methods of using same” (Prolx Pharmaceuticals Corporation, priority 1997, dated 2002).

Amino acid sequences for entries named in this document (tags omitted). Residues count along the entry.
UniProt Q16881, 151-649: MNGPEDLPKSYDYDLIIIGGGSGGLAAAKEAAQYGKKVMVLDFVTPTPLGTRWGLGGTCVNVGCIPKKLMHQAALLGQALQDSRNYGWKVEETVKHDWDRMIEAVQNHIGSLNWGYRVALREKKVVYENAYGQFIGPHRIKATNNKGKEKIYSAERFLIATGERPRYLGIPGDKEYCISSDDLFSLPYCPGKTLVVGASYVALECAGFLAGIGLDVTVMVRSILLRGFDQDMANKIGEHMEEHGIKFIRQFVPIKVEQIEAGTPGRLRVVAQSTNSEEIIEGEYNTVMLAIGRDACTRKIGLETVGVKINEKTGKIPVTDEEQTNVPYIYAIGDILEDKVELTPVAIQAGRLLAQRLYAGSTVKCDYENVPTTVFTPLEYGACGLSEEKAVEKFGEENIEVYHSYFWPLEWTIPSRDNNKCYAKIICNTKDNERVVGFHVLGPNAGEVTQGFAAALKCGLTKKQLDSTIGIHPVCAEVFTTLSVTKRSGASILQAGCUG
UniProt P00390, 44-522: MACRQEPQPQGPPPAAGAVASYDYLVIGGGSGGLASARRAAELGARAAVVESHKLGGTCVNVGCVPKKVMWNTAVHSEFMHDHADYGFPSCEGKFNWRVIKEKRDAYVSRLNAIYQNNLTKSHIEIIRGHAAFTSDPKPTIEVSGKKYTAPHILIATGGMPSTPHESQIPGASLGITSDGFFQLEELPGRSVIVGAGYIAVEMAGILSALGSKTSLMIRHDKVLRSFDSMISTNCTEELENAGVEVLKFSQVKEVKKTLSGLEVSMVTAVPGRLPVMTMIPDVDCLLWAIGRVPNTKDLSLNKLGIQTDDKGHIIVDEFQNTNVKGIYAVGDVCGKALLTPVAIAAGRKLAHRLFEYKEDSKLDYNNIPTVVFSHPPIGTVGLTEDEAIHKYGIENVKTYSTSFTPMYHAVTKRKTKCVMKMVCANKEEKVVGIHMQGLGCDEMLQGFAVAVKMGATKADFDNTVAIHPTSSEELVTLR

Legend:
[1] = target: thioredoxin reductase/thioredoxin (Homo sapiens, UniProt Q16881); assay: thioredoxin reductase/thioredoxin-dependent insulin reduction assay; format: biochemical; settings: for IC50 (μg/ml) in TR/Trx Assay: Table I, 30 min preincubation; for IC50TRTrx: Table II; for in vitro IC50 TR/Trx (μg/ml): Table III; for TR/TRTrx: ratio of IC50 TR alone and IC50 TR/Trx assay
[2] = target: glutathione reductase (Homo sapiens, UniProt P00390); assay: glutathione reductase assay (DTNB reduction); format: biochemical; settings: Table II
[3] = test system: NCI's panel of 60 human cancer cell lines; settings: mean 50% growth inhibition concentration, entire cell line panel; cited from earlier work
[4] = test system: leukemia cell line; settings: mean 50% growth inhibition concentration; cited from earlier work
[5] = target: thioredoxin reductase (Homo sapiens, UniProt Q16881); assay: thioredoxin reductase assay (DTNB reduction); settings: for IC50TR: Table II, thioredoxin reductase alone; for GR/TR: ratio of IC50 glutathione reductase to IC50 thioredoxin reductase

Cn1cnc([N+](=O)[O-])c1Sc1nc2ccccc2o1
IC50 (μg/ml) in TR/Trx Assay [1]: 0.47 µg/mL (≈ 1.7 µM) | IC50TRTrx [1]: 0.47 µg/mL (≈ 1.7 µM) | in vitro IC50 TR/Trx (μg/ml) [1]: ≦0.5 μg/ml | TR/TRTrx [1]: 4.3 | IC50GR [2]: 70 µg/mL (≈ 253 µM) | GI50 (μg/ml) All Tumors [3]: 2.4 µg/mL (≈ 8.69 µM) | GI50 (μg/ml) Leukemias [4]: 0.8 µg/mL (≈ 2.9 µM) | IC50TR [5]: 2 µg/mL (≈ 7.24 µM) | GR/TR [5]: 35

C=C(CN(C)C)C(=O)c1ccccc1Cl
IC50 (μg/ml) in TR/Trx Assay [1]: 1.1 µg/mL (≈ 4.92 µM) | IC50TRTrx [1]: 1.08 µg/mL (≈ 4.83 µM) | in vitro IC50 TR/Trx (μg/ml) [1]: ≦5.0 μg/ml | TR/TRTrx [1]: 1.9 | IC50GR [2]: 3 µg/mL (≈ 13.4 µM) | GI50 (μg/ml) All Tumors [3]: 5.7 µg/mL (≈ 25.5 µM) | GI50 (μg/ml) Leukemias [4]: 2.1 µg/mL (≈ 9.39 µM) | IC50TR [5]: 2 µg/mL (≈ 8.94 µM) | GR/TR [5]: 2

Cc1ccc2c(c1)c1ccc3c(c1n2C)C(=O)C=CC3=O
IC50 (μg/ml) in TR/Trx Assay [1]: 1.7 µg/mL (≈ 6.17 µM) | IC50TRTrx [1]: 1.65 µg/mL (≈ 5.99 µM) | in vitro IC50 TR/Trx (μg/ml) [1]: ≦5.0 μg/ml | TR/TRTrx [1]: 4.2 | IC50GR [2]: 34 µg/mL (≈ 123 µM) | GI50 (μg/ml) All Tumors [3]: 0.8 µg/mL (≈ 2.91 µM) | GI50 (μg/ml) Leukemias [4]: 0.3 µg/mL (≈ 1.09 µM) | IC50TR [5]: 7 µg/mL (≈ 25.4 µM) | GR/TR [5]: 5

In brackets after ≈: the same amount, converted by molar mass. The match of structure and compound is tentative.
